No constants are given. Whether binding was seen depends on the method and setting. Binding seen in cells or lysates may run through a third protein. A yes stands for co-enrichment or nearness to the bait. Other partners may have been found. Sequences can lack the tags named with a protein.

Sequences of proteins named here, by UniProt entry; tags and fusion partners are left off.
UniProt Q12158: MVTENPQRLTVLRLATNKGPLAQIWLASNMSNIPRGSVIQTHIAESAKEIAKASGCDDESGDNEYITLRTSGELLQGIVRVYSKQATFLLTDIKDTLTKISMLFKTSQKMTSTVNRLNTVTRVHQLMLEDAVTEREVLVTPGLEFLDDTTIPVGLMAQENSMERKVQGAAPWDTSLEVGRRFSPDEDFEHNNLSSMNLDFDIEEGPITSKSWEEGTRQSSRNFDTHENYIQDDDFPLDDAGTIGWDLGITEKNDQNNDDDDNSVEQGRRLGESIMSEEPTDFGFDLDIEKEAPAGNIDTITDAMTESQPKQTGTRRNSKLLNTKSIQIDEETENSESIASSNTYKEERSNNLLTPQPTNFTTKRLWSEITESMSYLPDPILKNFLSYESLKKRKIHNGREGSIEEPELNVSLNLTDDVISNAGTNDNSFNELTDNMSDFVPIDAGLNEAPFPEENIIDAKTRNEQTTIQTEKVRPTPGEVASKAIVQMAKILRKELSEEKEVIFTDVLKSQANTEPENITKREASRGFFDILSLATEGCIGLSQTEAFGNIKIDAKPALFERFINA

For this assay, the target named is T1, Scc2-6His-3FLAG (budding yeast) (UniProt Q04002).
T1 sequence: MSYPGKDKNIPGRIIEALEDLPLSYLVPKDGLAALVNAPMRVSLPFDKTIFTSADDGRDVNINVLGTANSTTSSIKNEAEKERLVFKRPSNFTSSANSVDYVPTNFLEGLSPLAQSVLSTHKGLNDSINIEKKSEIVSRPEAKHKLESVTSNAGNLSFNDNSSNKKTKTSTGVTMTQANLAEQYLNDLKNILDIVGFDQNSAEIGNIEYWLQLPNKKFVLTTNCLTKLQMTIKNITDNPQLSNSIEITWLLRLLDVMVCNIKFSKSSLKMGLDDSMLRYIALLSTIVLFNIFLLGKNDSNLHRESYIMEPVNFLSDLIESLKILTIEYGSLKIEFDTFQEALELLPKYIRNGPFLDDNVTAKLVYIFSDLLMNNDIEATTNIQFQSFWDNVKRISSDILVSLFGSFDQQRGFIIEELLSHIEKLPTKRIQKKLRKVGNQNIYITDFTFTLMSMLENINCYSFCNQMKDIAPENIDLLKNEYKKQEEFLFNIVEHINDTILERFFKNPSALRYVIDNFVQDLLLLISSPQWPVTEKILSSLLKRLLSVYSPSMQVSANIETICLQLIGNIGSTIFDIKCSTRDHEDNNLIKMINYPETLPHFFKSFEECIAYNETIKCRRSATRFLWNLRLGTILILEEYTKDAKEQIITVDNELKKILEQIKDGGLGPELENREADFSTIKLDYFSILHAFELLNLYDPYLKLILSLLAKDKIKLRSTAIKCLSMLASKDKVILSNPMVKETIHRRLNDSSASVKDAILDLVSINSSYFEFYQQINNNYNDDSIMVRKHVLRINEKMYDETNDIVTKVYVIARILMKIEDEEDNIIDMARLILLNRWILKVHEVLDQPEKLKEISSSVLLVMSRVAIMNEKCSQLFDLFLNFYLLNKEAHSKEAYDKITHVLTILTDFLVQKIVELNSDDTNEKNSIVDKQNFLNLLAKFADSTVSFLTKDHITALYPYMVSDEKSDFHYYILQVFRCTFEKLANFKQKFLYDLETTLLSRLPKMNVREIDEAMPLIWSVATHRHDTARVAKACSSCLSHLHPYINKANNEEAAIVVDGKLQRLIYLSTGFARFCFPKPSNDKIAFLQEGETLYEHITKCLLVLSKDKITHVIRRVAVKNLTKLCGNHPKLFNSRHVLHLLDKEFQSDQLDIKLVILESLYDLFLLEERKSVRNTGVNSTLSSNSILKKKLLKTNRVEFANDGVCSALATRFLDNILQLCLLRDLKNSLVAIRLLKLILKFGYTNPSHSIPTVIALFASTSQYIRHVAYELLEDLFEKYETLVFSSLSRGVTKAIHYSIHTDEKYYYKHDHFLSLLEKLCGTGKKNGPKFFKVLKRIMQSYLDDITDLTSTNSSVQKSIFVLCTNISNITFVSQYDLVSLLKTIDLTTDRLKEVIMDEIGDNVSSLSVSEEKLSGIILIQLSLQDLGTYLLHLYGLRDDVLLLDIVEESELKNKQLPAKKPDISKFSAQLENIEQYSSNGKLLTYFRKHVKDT
Put plainly: affinity purification with mass spectrometry; Scc2-6His-3FLAG immunoprecipitated from G1-arrested wild-type or pGAL-SCC1-3HA cells in the presence of galactose; copurifying proteins analysed by mass spectrometry.

For Scc1-3HA (from UniProt Q12158 1-566), the binding entry was “binds”.

B1: Scc4 (protein, UniProt P40090 1-624)
chain: MENLGDKLSISQVYHLAQEYRDHAYSIANKIGSEEGLKQYYGLMNMSIQMFQLLKTKCTLSVLEDSKVTFEMVELLIQETYNFDLAELYISSLKERLQTHQSDTDLVEEIMRCEFLLLHDLPLMRDSKFHYKIALRNCNELVQYMVNLQDELYQNWASVFQYVGVMLCIKLKQHRRVKTSFHGLLSQCREKSQWKWFLNLCYVNYLLNERFPIPEDALQELRSTELHTVGPELYAWKLALEMVIQLCKDGNITDHLNEFKNFFDTNKQSLVTNEGKGCVIKIMPRIALKVELPMIFHYKELKNILLLLQSVSYIVNCYDEKGNFSRKFLPKVYSTTQKLIKNIAAGGVSMNELDSRIQTYKSILEFCEFYKVWEQTLLKGAVVTTESPKLGPSPGYVRLLQAMKVQFEGGGAVEEYTRLAQSGGTSSEVKMISLLNCYTVQAARVSRCSGDKQGELVEQCNKVWLQVEKLLQETDLQFNPIWECTVTILWLFSHFEPFSWNPLPCSDKQRAEYVSKLREFYSSNKFVAGEAVADNRFKLKKALLLQILVNYLGGRMLEHDLGEIYAISAKCFDMCRQQGGMRKVQYVIGIWHLMNCTVAMRGKDVALTNAKLEALVKQITSVKQ
For B1, the binding result is reported as “binds”.

Values taken from PMC3627958.
